Experimental data taken from article PMC8700025.
These are yes or no findings as the source states them, for the method shown. Binding seen in cells or lysates may run through a third protein. Here binding means that the protein was enriched with, or labelled near, the bait; the list need not be complete.

B1: Peflin (PEF1) (protein, UniProt Q9UBV8 1-284)
chain: MASYPYRQGCPGAAGQAPGAPPGSYYPGPPNSGGQYGSGLPPGGGYGGPAPGGPYGPPAGGGPYGHPNPGMFPSGTPGGPYGGAAPGGPYGQPPPSSYGAQQPGLYGQGGAPPNVDPEAYSWFQSVDSDHSGYISMKELKQALVNCNWSSFNDETCLMMINMFDKTKSGRIDVYGFSALWKFIQQWKNLFQQYDRDRSGSISYTELQQALSQMGYNLSPQFTQLLVSRYCPRSANPAMQLDRFIQVCTQLQVLTEAFREKDTAVQGNIRLSFEDFVTMTASRML
B2: TgGRA1 (protein, UniProt P13403 25-190)
chain: AEGGDNQSSAVSDRASLFGLLSGGTGQGLGIGESVDLEMMGNTYRVERPTGNPDLLKIAIKASDGSYSEVGNVNVEEVIDTMKSMQRDEDIFLRALNKGETVEEAIEDVAQAEGLNSEQTLQLEDAVSAVASVVQDEMKVIDDVQQLEKDKQQLKDDIGFLTGERE
B3: TgGRA4 (protein, UniProt Q27002 21-345)
chain: GECSFGSHLADMAGLSGRHDKERHQAKKRYYHSMYGNQTPYPYANGQQASPPPQGQLLIIQNPDGSFMIVDQQGVPQVPQAAGGPGSPMNGGYYMPTGVYTAQVVPGTPGHPVQAIPQQPLRTQATATYYHPAAVPPPGPSVFVFTPSSVQPGAEVTPGYSGLQLRQQSQYGYSYPGTTSTPTPPPPASYGYPVFPAFPRLPAFSDSVSVSTEDSGLTGVKDSSSSESTVTPADEAASESEEGDKTSRKSKVKKGILTGLGVAATLAAAAAAAKAVKGFGGTRTSTAPAEAGKTELDDGYRPPPFNPRPSPYAELLKDLERMRKE

Each binder was assayed against TgGRA14 endogenously epitope-tagged at the C-terminus with 6x-HA (ME49Δku80 GRA14-HA6x) (Toxoplasma gondii (ME49, type II)) (assay: affinity purification with mass spectrometry; anti-HA magnetic beads on lysates of HFF infected with ME49Δku80 GRA14-HA6x or untagged ME49Δku80 (tachyzoite conditions 48 hpi; bradyzoite conditions 72 hpi also run); lysis in 50 mM Tris pH 7.6, 200 mM NaCl, 1% Triton X-100, 0.5% CHAPS; washes up to 300 mM NaCl; LC-MS/MS).

| Binder | binding |
| --- | --- |
| B1 | binds |
| B2 | binds |
| B3 | binds |
